Screening data, single-dose tests

Chains of the proteins cited; added tags and fusions are not shown.
UniProt I6X8D2, whole entry: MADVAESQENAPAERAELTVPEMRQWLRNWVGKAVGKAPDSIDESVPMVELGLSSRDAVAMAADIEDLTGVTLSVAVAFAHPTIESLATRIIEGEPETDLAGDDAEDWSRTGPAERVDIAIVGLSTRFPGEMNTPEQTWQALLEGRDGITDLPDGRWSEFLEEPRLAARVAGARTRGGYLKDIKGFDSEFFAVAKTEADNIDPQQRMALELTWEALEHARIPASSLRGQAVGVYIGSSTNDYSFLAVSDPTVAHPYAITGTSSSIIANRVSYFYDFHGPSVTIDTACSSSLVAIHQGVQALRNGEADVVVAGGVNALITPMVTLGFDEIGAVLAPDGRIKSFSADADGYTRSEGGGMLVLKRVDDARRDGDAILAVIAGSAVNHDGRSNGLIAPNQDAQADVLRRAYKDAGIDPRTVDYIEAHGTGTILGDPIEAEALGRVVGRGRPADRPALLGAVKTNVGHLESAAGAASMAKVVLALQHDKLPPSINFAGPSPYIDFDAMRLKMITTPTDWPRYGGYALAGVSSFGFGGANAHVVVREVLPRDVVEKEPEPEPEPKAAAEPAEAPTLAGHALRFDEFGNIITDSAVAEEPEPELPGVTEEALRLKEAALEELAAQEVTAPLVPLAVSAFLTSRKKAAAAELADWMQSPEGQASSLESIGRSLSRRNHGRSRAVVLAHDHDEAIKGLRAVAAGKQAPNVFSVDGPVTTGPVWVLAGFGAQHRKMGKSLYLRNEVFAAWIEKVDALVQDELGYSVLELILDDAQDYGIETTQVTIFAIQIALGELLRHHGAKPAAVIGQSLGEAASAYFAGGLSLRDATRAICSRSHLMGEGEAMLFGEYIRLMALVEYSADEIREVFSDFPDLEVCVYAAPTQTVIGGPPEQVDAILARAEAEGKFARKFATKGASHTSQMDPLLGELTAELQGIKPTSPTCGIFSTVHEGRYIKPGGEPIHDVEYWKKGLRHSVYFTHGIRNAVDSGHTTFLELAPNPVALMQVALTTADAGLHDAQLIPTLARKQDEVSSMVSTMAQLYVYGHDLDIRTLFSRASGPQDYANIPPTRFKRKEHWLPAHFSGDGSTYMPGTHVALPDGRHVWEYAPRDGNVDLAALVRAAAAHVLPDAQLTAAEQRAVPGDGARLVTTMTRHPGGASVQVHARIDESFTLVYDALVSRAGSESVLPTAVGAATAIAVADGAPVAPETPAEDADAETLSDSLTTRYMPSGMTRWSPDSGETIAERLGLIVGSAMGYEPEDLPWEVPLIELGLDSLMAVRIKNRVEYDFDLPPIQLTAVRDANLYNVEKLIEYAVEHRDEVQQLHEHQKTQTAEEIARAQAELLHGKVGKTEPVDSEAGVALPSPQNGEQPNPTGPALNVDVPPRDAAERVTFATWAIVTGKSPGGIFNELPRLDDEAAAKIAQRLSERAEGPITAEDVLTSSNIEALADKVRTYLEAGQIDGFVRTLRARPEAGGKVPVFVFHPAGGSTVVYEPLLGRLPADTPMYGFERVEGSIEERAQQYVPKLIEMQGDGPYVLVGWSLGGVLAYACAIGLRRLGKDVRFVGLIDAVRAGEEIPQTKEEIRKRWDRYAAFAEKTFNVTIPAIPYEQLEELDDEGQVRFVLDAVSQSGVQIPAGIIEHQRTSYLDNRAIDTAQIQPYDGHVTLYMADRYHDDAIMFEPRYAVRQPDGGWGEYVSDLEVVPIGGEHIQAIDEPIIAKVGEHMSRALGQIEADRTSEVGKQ
UniProt P9WPC5, whole entry: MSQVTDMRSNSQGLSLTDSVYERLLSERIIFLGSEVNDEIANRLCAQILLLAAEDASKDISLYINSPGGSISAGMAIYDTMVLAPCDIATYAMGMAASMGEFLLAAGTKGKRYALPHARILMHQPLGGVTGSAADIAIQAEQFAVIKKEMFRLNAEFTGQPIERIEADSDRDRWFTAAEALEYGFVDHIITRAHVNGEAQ
UniProt P9WPC3, whole entry partner: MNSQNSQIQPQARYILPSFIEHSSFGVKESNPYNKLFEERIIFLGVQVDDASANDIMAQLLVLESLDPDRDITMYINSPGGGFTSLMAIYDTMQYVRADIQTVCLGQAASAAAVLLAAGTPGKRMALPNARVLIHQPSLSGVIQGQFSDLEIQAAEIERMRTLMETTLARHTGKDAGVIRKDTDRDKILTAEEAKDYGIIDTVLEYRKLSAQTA

The values are deposited in ChEMBL (CHEMBL3988442, “University of Dundee, Small-Polar-MMV Screening Library” (2021)).

Leishmania in macrophages: 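Cell assay of Leishmania donovani living inside macrophages; the read-out is not stated. Compounds at 30 µM. Higher reads as stronger inhibition (inferred: compounds with an IC50 in retests scored well above the rest). About 69,000 compounds were tested under these conditions; 1.5% (about 1,000) showed 50% or more at least once.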
Pks13 thioesterase: 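Enzyme assay of the thioesterase domain of polyketide synthase 13; the read-out is not stated. Target: Polyketide synthase Pks13, Mycobacterium tuberculosis (UniProt I6X8D2). Concentration: 30 µM. The record gives no direction; the compounds picked for IC50 retests had high values, so higher reads as stronger inhibition. Size under these conditions: about 67,000 compounds, about 300 of them at 50% or above in at least one test.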
ClpP1P2: 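ClpP1P2, Mycobacterium tuberculosis (UniProt P9WPC5 and UniProt P9WPC3). Protease assay of ClpP1P2, read by the AMC dye that it sets free. Tested at 50 µM. Higher reads as stronger inhibition, judged from the few compounds that gave an IC50. Most other retested compounds had strongly negative values. Of about 69,000 compounds tested this way, about 10 (0.015%) reached 50% or more in at least one test.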
T. brucei: 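Whole-parasite assay of Trypanosoma brucei over 72 hours; the read-out is not stated. Compounds at 30 µM. Direction is inferred from retests: higher values go with stronger inhibition. Values scatter widely below zero; nearly all retest evidence comes from the higher of the two concentrations used. Of about 64,000 compounds tested this way, about 940 (1.5%) reached 50% or more in at least one test.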

Values are the deposited “Percent Effect”, in %.
The controls that fix the scale are not given in the record; negative values are as filed.
Compounds were drawn at random from those tested, without regard to their results.
A dash means the value is not listed here; it may have been measured.

Compound,Leishmania in macrophages,Pks13 thioesterase,ClpP1P2,T. brucei
CCOC(=O)c1ccc(S(=O)(=O)NCC(CC)N2CCCC2)cc1 (stereo not shown),24.25,1.876,10.47,-6.352
O=C(O)C(F)(F)F.c1cnc(NCc2nnn3c2CN(Cc2ccco2)CCC3)nc1,-8.13,-,-,-19.5
O=C(O)C(F)(F)F.[H][C@@]12OCCC[C@]1([H])N(C(=O)c1cccn1C)C[C@H]2OCc1ccncc1,-6.488,-,-,-9.042
CN(CC(=O)NC(C)(C#N)C1CC1)Cc1nc2ccccc2n1C (stereo not shown),-2.666,-7.874,-7.908,-40.8
COc1cccc(NC(=O)NC(C)(C)c2noc(C)n2)c1,36.5,-,-5.951,-30.72
Cc1ccc2oc(=O)n(CCC(=O)N3CCCC4(CNC(=O)O4)C3)c2c1 (stereo not shown),30.12,-7.345,-9.379,16.22
Cc1nc(NCc2ccco2)nc2c1COCC21CCNC1.O=C(O)C(F)(F)F (stereo not shown),-2.369,-,-,-
CCOCc1cccc(S(=O)(=O)Nc2ccn(CC)n2)c1,9.38,-35.3,5.186,-
Cc1nn(Cc2ccc(C(=O)NCCCN3CCCC3=O)o2)c(C)c1Br,12.19,2.855,-10.77,-41.18
CN(Cc1cccnc1)C[C@@H]1OC[C@H]2CN(C(=O)C3CC3)CC[C@H]21,-,-12.55,0.468,-
Cc1ccc(-c2nnc(SCC(=O)O)n2-c2ccc(C)cc2)cc1,5.804,-20.72,5.635,19.16
CSc1ccc(C(=O)N(c2ccc(F)cn2)C2CCOCC2)o1,-20.5,24.59,-4.633,-95.71
CC(CNC(=O)Nc1ccc(C#N)cc1)N1CCc2ccccc21 (stereo not shown),23.85,8.931,0.3117,100.3
CCS(=O)(=O)CC(C)NC(=O)N(C)Cc1cc(Cl)cn1C (stereo not shown),11.77,-29.32,-3.643,-27.93
Cc1cnn(CC2CCCN2C(=O)Cc2ccc3c(c2)CCO3)c1 (stereo not shown),25.86,3.9,-14.55,-57.12
Cc1ccc2c(c1)C1(CC2)CCN(CC(=O)O)CC1.O=C(O)C(F)(F)F,-24.68,-,-,0.1992
CN(CCNC(=O)c1ccnc(-n2ccnc2)c1)C1CC1,-3.098,-7.712,-1.938,-
Cc1ccncc1-n1cc(CCO)cn1,17.25,-14.31,-2.262,-34.86
[H][C@@]12CCCCN(Cc3cccc(C)c3)[C@]1([H])CN(c1ncccn1)C2,-35.54,-,-,-18.45
COc1cccc(-c2c[nH]c(C3CCCN3)n2)c1.Cl.Cl (stereo not shown),-6.247,-,-,-30.82
c1ncn(CC2CN(Cc3noc(C4CC4)n3)CCO2)n1 (stereo not shown),-30.18,-14.27,-7.433,-22.91
CN(Cc1ccccc1)C(=O)c1nc(S(C)(=O)=O)n2ccccc12,-15.67,-33.71,2.576,1.686
CCn1nc(C)cc1C(=O)N1CCCN(CCCc2ccccc2)CC1,-9.613,-24.85,-17.04,-20.8
CCC(C(=O)NC1CCCCC1)n1cccc(OC)c1=O (stereo not shown),16.95,-7.567,-6.06,-51.36
Cc1cc(C(=O)N(C)Cc2cnn(C)c2C)n(C)n1,-10.76,2.926,-27.65,-18.53
Cc1nccn1-c1cc(CNC(=O)CCC2CCCO2)ccn1 (stereo not shown),-15.54,-16.87,9.994,-34.08
CCC(O)CNC(=O)c1cc(COc2ccc(OC)cc2Cl)[nH]n1 (stereo not shown),9.919,0.7453,-4.523,-19.75
CCc1nn(C)c(Cl)c1CN1CCC2(C1)CN(C)C(=O)O2 (stereo not shown),24.94,0.4741,-14.6,-37.74
COc1ccc(C2CCCN2Cc2cnn(C)c2)cc1 (stereo not shown),14.2,-35.2,-13.34,-1.609
COC(=O)c1ccc(N2CCN(CCS(C)(=O)=O)C(C)C2)cc1 (stereo not shown),-14.7,-19.54,-31.34,-13.78
CC(C)C(=O)N1CCC2(CN(CC3CCCC3)C2)C1,-,-18.75,1.738,-
Cc1ncccc1C(=O)NCc1ccccc1CN(C)Cc1ccco1,4.876,-14.17,-6.836,-30.7
O=C(O)C(F)(F)F.[H][C@]12CCC[C@@]1(COc1ccccn1)CN(S(=O)(=O)CC)C2,11.39,-,-,41.81
CC1=N[C@@]2(CC[C@@H]3CN(S(=O)(=O)CC(C)C)C[C@@H]32)C(=O)N1CC(C)C,-,-11.32,6.669,-
O=C(NCC(O)c1ccoc1)Nc1cccs1 (stereo not shown),10.34,-2.464,-15.28,-12.19
Cc1ccc(NC2CCN(C(=O)COCC3CC3)CC2)nn1,-12.08,-17.54,-12.17,-11.69
CCc1nc(C2CCCN2Cc2noc(Cc3ccccc3)n2)no1 (stereo not shown),-17,3.782,-7.241,-4.889
Cc1noc(-c2cccnc2N2CCOC(C)(c3cnn(C)c3)C2)n1 (stereo not shown),4.09,-0.2525,0.9703,2.486
COC(=O)CCNC(=O)c1ccoc1CN1c2ccccc2CC1C (stereo not shown),7.849,-3.65,-0.2202,35.23
CCc1nc(C2CCCN(C(=O)c3cccc4c3ccn4C)C2)no1 (stereo not shown),24.23,0.9319,-2.312,49.57
COCC1c2c(cnn2C)CCN1C(=O)c1cscn1.O=C(O)C(F)(F)F (stereo not shown),23.63,-,-,-84.34
COCCCN1CCCN(C(C)C(=O)Nc2ccnn2C(C)C)CC1 (stereo not shown),29.44,20.54,-12.2,10.06
Cc1nccn1[C@@H]1CC[C@@H](NC(=O)CCCn2cncn2)[C@H]1O,33.91,-5.558,4.188,-2.75
CCN(Cc1cnn(CC)c1)C(=O)CN1C(=O)CCc2ccccc21,18.11,-36.83,0.2704,-3.035
CCN(CC)[C@@H]1CN(S(=O)(=O)c2cn(C)cn2)[C@@H]2CCCO[C@H]12,-,-11.24,0.3725,-
Cc1ccc(CC2CCCN2CC(=O)NCc2cccnc2)cc1 (stereo not shown),44.5,-34.22,-5.037,18.82
CN(C)Cc1nc(C(C)(C)NC(=O)c2nc3ccccc3s2)no1,6.387,-10.72,4.984,-12.21
NS(=O)(=O)CCCNC(=O)C1(c2cccc(Cl)c2)CC1,7.847,-11.61,8.444,10.32

Once more, the final 4:

Compound,Leishmania in macrophages,Pks13 thioesterase,ClpP1P2,T. brucei
CCN(CC)[C@@H]1CN(S(=O)(=O)c2cn(C)cn2)[C@@H]2CCCO[C@H]12,-,-11.24,0.3725,-
Cc1ccc(CC2CCCN2CC(=O)NCc2cccnc2)cc1 (stereo not shown),44.5,-34.22,-5.037,18.82
CN(C)Cc1nc(C(C)(C)NC(=O)c2nc3ccccc3s2)no1,6.387,-10.72,4.984,-12.21
NS(=O)(=O)CCCNC(=O)C1(c2cccc(Cl)c2)CC1,7.847,-11.61,8.444,10.32